This series relates to additional tumor types. Put plainly: LC-MS detection and over-presentation of the peptides on additional tumor types, cell lines and primary cultures. Also on record: species or system human. Particulars: for Other relevant organs/ cancerous diseases: Table 4A: additional tumor types on which the peptide was found, over-presented on more than 5% of measured tumor samples, or presented on more than 5% with ratio of geometric means tumor vs normal tissues larger than 3; for Additional organs/cancerous diseases: additional tumor types with over-presentation on more than 5% of the measured tumor samples, or presentation on more than 5% with ratio of geometric means tumor vs normal tissues larger than 3; for peptide additionally detected on tumor samples (positive/measured): sample set of FIG. 1A-D.

“552 (GLLDLPFRVGV; listed as Homo sapiens) [compound 552]”: the “Other relevant organs/ cancerous diseases” value was “SCLC, Brain Cancer, Leukemia, Melanoma” and the Additional organs/cancerous diseases result is “CLL, AML, NHL”. “553 (SLLNQDLHWSL; listed as Homo sapiens) [compound 553]”: the Additional organs/cancerous diseases entry is given as “CLL”. Regarding “555 (YVLEGLKSV; listed as Homo sapiens) [compound 555]”, the “Other relevant organs/ cancerous diseases” value was “SCLC, Melanoma” and the Additional organs/cancerous diseases result is given as “CRC, CLL, Esophageal Cancer, Urinary Bladder Cancer, Uterine Cancer, NHL, HNSCC”. “556 (FLTDLEDLTL; listed as Homo sapiens) [compound 556]”: the “Other relevant organs/ cancerous diseases” value is on record as “SCLC, Leukemia” and the Additional organs/cancerous diseases result is given as “CLL, Uterine Cancer, NHL”. As to “559 (VTVPPGPSL; listed as Homo sapiens) [compound 559]”, the “Other relevant organs/ cancerous diseases” value is recorded as “Leukemia” and the Additional organs/cancerous diseases entry is “CLL, AML”.

As to “567 (SLLPLDDIVRV; listed as Homo sapiens) [compound 567]”, the “Other relevant organs/ cancerous diseases” value is given as “Leukemia” and the Additional organs/cancerous diseases result was “CLL, BRCA”. Consider “571 (LLLTTIPQI; listed as Homo sapiens) [compound 571]”, for which the “Other relevant organs/ cancerous diseases” value is on record as “Prostate, Leukemia” and the Additional organs/cancerous diseases result was “Melanoma”. Regarding “572 (ALADLIEKELSV; listed as Homo sapiens) [compound 572]”, the “Other relevant organs/ cancerous diseases” value is “Leukemia” and the Additional organs/cancerous diseases result is reported as “CLL, NHL”.

As to “573 (ILVANAIVGV; listed as Homo sapiens) [compound 573]”, the “Other relevant organs/ cancerous diseases” value is on record as “NSCLC, HCC, Leukemia, Melanoma” and the Additional organs/cancerous diseases entry is recorded as “CLL, SCLC, Urinary Bladder Cancer”.

On to “577 (VMFEDGVLMRL; listed as Homo sapiens) [compound 577]”, for which the “Other relevant organs/ cancerous diseases” value was “Colon, Rectum, Leukemia” and the Additional organs/cancerous diseases entry was “SCLC, CLL, Urinary Bladder Cancer, AML, NHL, HNSCC”. On to “578 (FLDPGGPMMKL; listed as Homo sapiens) [compound 578]”, for which the “Other relevant organs/ cancerous diseases” value is on record as “NSCLC, CRC, MCC, Melanoma” and the Additional organs/cancerous diseases result is “SCLC, CLL, BRCA, Urinary Bladder Cancer, HNSCC”. For “580 (LLMENAERV; listed as Homo sapiens) [compound 580]”, the “Other relevant organs/ cancerous diseases” value was “CRC, Leukemia, BrCa, Melanoma” and the Additional organs/cancerous diseases entry is recorded as “CLL, Esophageal Cancer, Urinary Bladder Cancer, Uterine Cancer, NHL, HNSCC”. Regarding “581 (RLWNETVEL; listed as Homo sapiens) [compound 581]”, the “Other relevant organs/ cancerous diseases” value is “SCLC, Colon, Rectum” and the Additional organs/cancerous diseases entry is “AML, NHL”.

Regarding “582 (TLCDVILMV; listed as Homo sapiens) [compound 582]”, the Additional organs/cancerous diseases result is “Melanoma”. Take “583 (ILANDGVLLAA; listed as Homo sapiens) [compound 583]”: the “Other relevant organs/ cancerous diseases” value was “HCC, Esophageal Cancer”; the Additional organs/cancerous diseases entry was “CLL, BRCA, Urinary Bladder Cancer, Uterine Cancer, Gallbladder Cancer and Bile Duct Cancer, NHL, HNSCC”. For “584 (ALAEVAAMENV; listed as Homo sapiens) [compound 584]”, the “Other relevant organs/ cancerous diseases” value is recorded as “Melanoma”.

As for “585 (ALWDLAADKQTL; listed as Homo sapiens) [compound 585]”, the “Other relevant organs/ cancerous diseases” value is recorded as “Urinary bladder Cancer” and the Additional organs/cancerous diseases result was “Melanoma”. With “592 (RLLSAAENFL; listed as Homo sapiens) [compound 592]”, the “Other relevant organs/ cancerous diseases” value is reported as “SCLC, Brain Cancer, BrCa, Esophageal Cancer”.

Consider “594 (IMLKGDNITL; listed as Homo sapiens) [compound 594]”, for which the “Other relevant organs/ cancerous diseases” value is reported as “Esophageal Cancer” and the Additional organs/cancerous diseases entry was “Uterine Cancer”.

“596 (ALLDQTKTLAESAL; listed as Homo sapiens) [compound 596]”: the “Other relevant organs/ cancerous diseases” value was “Leukemia, Melanoma” and the Additional organs/cancerous diseases entry is recorded as “CLL, NHL”. Turning to “598 (FLFPHSVLV; listed as Homo sapiens) [compound 598]”, the Additional organs/cancerous diseases result was “CRC”. Turning to “600 (ALAAPDIVPAL; listed as Homo sapiens) [compound 600]”, the “Other relevant organs/ cancerous diseases” value is on record as “Leukemia” and the Additional organs/cancerous diseases entry is listed as “CLL, Uterine Cancer, AML”.

As for “604 (SILDRDDIFV; listed as Homo sapiens) [compound 604]”, the “Other relevant organs/ cancerous diseases” value is “Leukemia” and the Additional organs/cancerous diseases entry is “CLL, Melanoma, NHL”. For “605 (KLYEAVPQL; listed as Homo sapiens) [compound 605]”, the Additional organs/cancerous diseases result was “Gallbladder Cancer and Bile Duct Cancer, HNSCC”. Consider “607 (RLYSGISGLEL; listed as Homo sapiens) [compound 607]”, for which the “Other relevant organs/ cancerous diseases” value is “NSCLC” and the Additional organs/cancerous diseases entry is on record as “CLL, Melanoma, AML, NHL”. Regarding “608 (SLLSVSHAL; listed as Homo sapiens) [compound 608]”, the “Other relevant organs/ cancerous diseases” value is “RCC”.

Take “609 (ALWKQLLEL; listed as Homo sapiens) [compound 609]”: the Additional organs/cancerous diseases entry is “CRC, Esophageal Cancer, Uterine Cancer”. Consider “611 (YLLDDGTLVV; listed as Homo sapiens) [compound 611]”, for which the “Other relevant organs/ cancerous diseases” value is “HCC, Melanoma” and the Additional organs/cancerous diseases result was “Uterine Cancer”. With “612 (YLYNEGLSV; listed as Homo sapiens) [compound 612]”, the Additional organs/cancerous diseases result is on record as “BRCA, Urinary Bladder Cancer, AML, NHL, HNSCC”. Turning to “614 (LLLPDQPPYHL; listed as Homo sapiens) [compound 614]”, the “Other relevant organs/ cancerous diseases” value is on record as “Melanoma” and the Additional organs/cancerous diseases entry is “CLL”. Take “615 (VLPPDTDPA; listed as Homo sapiens) [compound 615]”: the Additional organs/cancerous diseases result was “Melanoma, Esophageal Cancer”. With “617 (ALMYESEKVGV; listed as Homo sapiens) [compound 617]”, the “Other relevant organs/ cancerous diseases” value is reported as “HCC, Gallbladder, Bile duct”. In the case of “620 (KLLNKIYEA; listed as Homo sapiens) [compound 620]”, the “Other relevant organs/ cancerous diseases” value is “Brain Cancer” and the Additional organs/cancerous diseases result is “BRCA, AML”. With “621 (VLMDRLPSLL; listed as Homo sapiens) [compound 621]”, the “Other relevant organs/ cancerous diseases” value is listed as “Melanoma” and the Additional organs/cancerous diseases entry is “CLL”. Take “622 (RLLGEEVVRVLQA; listed as Homo sapiens) [compound 622]”: the “Other relevant organs/ cancerous diseases” value was “NSCLC, SCLC, CRC, Melanoma” and the Additional organs/cancerous diseases entry is given as “Urinary Bladder Cancer, AML, NHL”. As for “623 (YLVEDIQHI; listed as Homo sapiens) [compound 623]”, the Additional organs/cancerous diseases entry is recorded as “NSCLC, PC”. Regarding “624 (FLQEEPGQLL; listed as Homo sapiens) [compound 624]”, the “Other relevant organs/ cancerous diseases” value is on record as “Leukemia, Melanoma, Esophageal Cancer”; the Additional organs/cancerous diseases entry was “CLL, Urinary Bladder Cancer, Uterine Cancer, Gallbladder Cancer and Bile Duct Cancer, NHL”.

Take “628 (KLWEFFQVDV; listed as Homo sapiens) [compound 628]”: the “Other relevant organs/ cancerous diseases” value is on record as “SCLC, Brain Cancer, HCC” and the Additional organs/cancerous diseases result is recorded as “Melanoma”. In the case of “633 (ALSRVSVNV; listed as Homo sapiens) [compound 633]”, the “Other relevant organs/ cancerous diseases” value was “Melanoma, Esophageal Cancer” and the Additional organs/cancerous diseases entry is recorded as “CLL”.

“635 (SLDSTLHAV; listed as Homo sapiens) [compound 635]”: the “Other relevant organs/ cancerous diseases” value is recorded as “NSCLC, Brain Cancer, CRC, HCC, BrCa, Esophageal Cancer”; the Additional organs/cancerous diseases entry is “SCLC, Melanoma, Urinary Bladder Cancer, Uterine Cancer, Gallbladder Cancer and Bile Duct Cancer”. As to “636 (LLTEIRAVV; listed as Homo sapiens) [compound 636]”, the Additional organs/cancerous diseases entry is “CLL, NHL”.

Consider “ALLENPKMEL (listed as Homo sapiens) [SEQ ID NO.: 441]”, for which the “number of samples with detectable presentation of the peptide” value is on record as 1 (breast cancers); 26 (cancer tissues, total); 5 (cell lines and primary cultures); 1 (colon cancers); 1 (esophageal cancers); 1 (head and neck cancers). The “number of samples with detectable presentation of the peptide” value reads like this: (liver cancers) 2; (lung cancers) 10; (prostate cancers) 1; (rectum cancers) 1; (urinary bladder cancers) 2; (uterus cancers) 1.

As for “ALLPLSPYL (listed as Homo sapiens) [SEQ ID NO.: 427]”, the “peptide additionally detected on tumor samples (positive/measured)” value was 3/6 (breast cancers), 1/4 (urinary bladder cancers) and 3/4 (uterine cancers).
